# About 22,000 (6.9%) of roughly 320,000 compounds were called active. This list was built around the results that the source calls inconclusive (neither active nor inactive); the mix of calls is not that of the screen. The call rests on the fitted dose curve; in most records, active means well fitted inhibition curve with a large enough effect; inconclusive means small, poorly fitted or top-dose-only effect, or another doubt; inactive means no such curve, though single readings can be large or run the other way. A potency beside an inconclusive call is a rough fit, not a confirmed value.
# Experiment: Primary qHTS for delayed death inhibitors of the malarial parasite plastid, 96 hour incubation
# Details: P. falciparum luciferase reporter growth; series mostly up to 28.7 µM
# Summary of the method: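 Readout is luminescence from an integrated firefly luciferase in P. falciparum. Red cells, 2% hematocrit and 0.05% parasitemia final, were cultured with compound through two parasite generations (96 hours) at 37 C, 5% CO2.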
# Potency means the concentration at half of the fitted maximal effect.
row,Structure (SMILES),Potency
1,Cc1cc(NC(=O)CN(C)C)c([N+](=O)[O-])cc1C,inactive
2,O=C1Nc2ccc([N+](=O)[O-])cc2OC1CCN1CCN(Cc2ccccc2)CC1 (stereo not given),"inconclusive: 13.1 µM [inhibitor, single point]"
3,Cc1ccc(C)c(S(=O)(=O)NCc2ccc(C(=O)N3CCC(Cc4ccccc4)CC3)cc2)c1,"inconclusive: 13.1 µM [inhibitor, single point]"
4,Nc1c(C(=O)NCc2ccc3c(c2)OCO3)nnn1-c1ccc(OC(F)(F)F)cc1,"inconclusive: 13.1 µM [inhibitor, partial curve]"
5,CC(=O)NNc1nc2ccccc2s1,"inconclusive: 0.0738 µM [inhibitor, full curve, poor fit]"
6,Cc1nnc(NC(=O)CSc2nc3c(c(=O)n(C)c(=O)n3C)n2C(C)C)s1,inactive
7,C/C(=N\O)C(=O)NCc1ccccn1,inactive
8,CCN(CC)S(=O)(=O)c1ccc(N2CCOCC2)c(NC(=O)c2ccc(C#N)cc2)c1,"inconclusive: 18.5 µM [inhibitor, single point]"
9,Cc1cc(OCC(=O)NC2CCN(C)CC2)ccc1[N+](=O)[O-],"inconclusive: 0.0029 µM [inhibitor, full curve, poor fit]"
10,CC(=O)c1ccc(NC(=O)C(=O)c2cn(CC(=O)N3CCCCC3)c3ccccc23)cc1,"inconclusive: 0.0117 µM [inhibitor, full curve, poor fit]"
11,CC(C)NC(=O)C(=O)NCc1ccccn1,inactive
12,O=C(CSc1ccc(-c2ccc(F)cc2)nn1)N1CCOCC1,inactive
13,CCC(NC(=S)NCc1ccc(F)cc1)c1ccccc1 (stereo not given),"inconclusive: 0.0657 µM [inhibitor, full curve, poor fit]"
14,Nc1nc(SCC(=O)Nc2ccc(C(F)(F)F)cc2)[nH]c(=O)c1NC(=O)c1ccc(F)c(F)c1,"inconclusive: 20.8 µM [inhibitor, single point]"
15,COc1ccc(S(N)(=O)=O)cc1C(=O)OCCCOC(=O)c1cc(S(N)(=O)=O)ccc1OC,"inconclusive: 11.7 µM [inhibitor, single point]"
16,O=C(c1ccc2c(Cl)c3c(nc2c1)CCCC3)N1CCN(c2ccc(F)cc2)CC1,"inconclusive: 18.5 µM [inhibitor, single point]"
17,O=C1Nc2ccc3sc4ccccc4c3c2C1=O,"inconclusive: 1.17 µM [inhibitor, full curve, poor fit]"
18,O=C(COC(=O)/C=C/c1ccccc1Cl)NC(=O)NC1CCCC1,inactive
19,Cc1ccc(CN2CC(C(=O)N(Cc3nnc(-c4ccccc4Cl)o3)C3CC3)CC2=O)cc1 (stereo not given),"inconclusive: 18.5 µM [inhibitor, single point]"
20,O=C(O)Cc1cc(C(=O)Nc2ccc(Br)cc2)sc1-c1ccccc1,inactive
21,CCOC(=O)c1sc(C)c2c1NC(C)(c1cccc3ccccc13)NC2=O (stereo not given),"inconclusive: 14.7 µM [inhibitor, partial curve]"
22,O=C(O)c1cc(-c2ccccc2)c(N2CCOCC2)s1,inactive
23,CCCNC(=O)c1cccc(S(=O)(=O)N2CC3(C)CC2CC(C)(C)C3)c1 (stereo not given),active: 13.1 µM
24,CC(=O)c1c(C(C)=O)c(C)n(-c2ccc(C)c(NC(=O)c3ccccc3Cl)c2)c1C,active: 2.94 µM

# Some of these compounds in order of length of the SMILES, descending:
row,Structure (SMILES),Potency
3,Cc1ccc(C)c(S(=O)(=O)NCc2ccc(C(=O)N3CCC(Cc4ccccc4)CC3)cc2)c1,"inconclusive: 13.1 µM [inhibitor, single point]"
19,Cc1ccc(CN2CC(C(=O)N(Cc3nnc(-c4ccccc4Cl)o3)C3CC3)CC2=O)cc1 (stereo not given),"inconclusive: 18.5 µM [inhibitor, single point]"
10,CC(=O)c1ccc(NC(=O)C(=O)c2cn(CC(=O)N3CCCCC3)c3ccccc23)cc1,"inconclusive: 0.0117 µM [inhibitor, full curve, poor fit]"
8,CCN(CC)S(=O)(=O)c1ccc(N2CCOCC2)c(NC(=O)c2ccc(C#N)cc2)c1,"inconclusive: 18.5 µM [inhibitor, single point]"
4,Nc1c(C(=O)NCc2ccc3c(c2)OCO3)nnn1-c1ccc(OC(F)(F)F)cc1,"inconclusive: 13.1 µM [inhibitor, partial curve]"
2,O=C1Nc2ccc([N+](=O)[O-])cc2OC1CCN1CCN(Cc2ccccc2)CC1 (stereo not given),"inconclusive: 13.1 µM [inhibitor, single point]"
6,Cc1nnc(NC(=O)CSc2nc3c(c(=O)n(C)c(=O)n3C)n2C(C)C)s1,inactive
23,CCCNC(=O)c1cccc(S(=O)(=O)N2CC3(C)CC2CC(C)(C)C3)c1 (stereo not given),active: 13.1 µM
21,CCOC(=O)c1sc(C)c2c1NC(C)(c1cccc3ccccc13)NC2=O (stereo not given),"inconclusive: 14.7 µM [inhibitor, partial curve]"
20,O=C(O)Cc1cc(C(=O)Nc2ccc(Br)cc2)sc1-c1ccccc1,inactive
9,Cc1cc(OCC(=O)NC2CCN(C)CC2)ccc1[N+](=O)[O-],"inconclusive: 0.0029 µM [inhibitor, full curve, poor fit]"
12,O=C(CSc1ccc(-c2ccc(F)cc2)nn1)N1CCOCC1,inactive
22,O=C(O)c1cc(-c2ccccc2)c(N2CCOCC2)s1,inactive
13,CCC(NC(=S)NCc1ccc(F)cc1)c1ccccc1 (stereo not given),"inconclusive: 0.0657 µM [inhibitor, full curve, poor fit]"
17,O=C1Nc2ccc3sc4ccccc4c3c2C1=O,"inconclusive: 1.17 µM [inhibitor, full curve, poor fit]"
11,CC(C)NC(=O)C(=O)NCc1ccccn1,inactive
7,C/C(=N\O)C(=O)NCc1ccccn1,inactive
5,CC(=O)NNc1nc2ccccc2s1,"inconclusive: 0.0738 µM [inhibitor, full curve, poor fit]"

# (cont.)

row,Structure (SMILES),Potency
1,COCCNC(=O)C(=O)NCC1OCCCN1S(=O)(=O)c1cccs1 (stereo not given),inactive
2,O=C(Cn1nnc(-c2ccccc2)n1)OCc1csc(-c2ccccc2)n1,"inconclusive: 0.415 µM [inhibitor, full curve, poor fit]"
3,CC(C)(C)c1ccccc1NC(=O)NC1CCN(Cc2c(F)cccc2Cl)CC1,"inconclusive: 6.57 µM [inhibitor, partial curve]"
4,CCOc1ccccc1N1CC(C(=O)Nc2cccc(S(=O)(=O)N3CCCCC3)c2)CC1=O (stereo not given),"inconclusive: 13.1 µM [inhibitor, single point]"
5,Nc1nc(Cl)cc(Oc2ccc([N+](=O)[O-])cc2)n1,inactive
6,Cc1ccc2cc(CN(Cc3ccco3)C(=O)NC3CCCCC3)c(=O)[nH]c2c1C,inactive
7,Cc1ccc(N(C(=O)CNC(=O)c2ccco2)C(C(=O)NC2CCCC2)c2ccncc2)c(C)c1 (stereo not given),inactive
8,CC1Sc2ccc(S(=O)(=O)NCCc3ccc(S(N)(=O)=O)cc3)cc2NC1=O (stereo not given),"inconclusive: 0.0294 µM [inhibitor, full curve, poor fit]"
9,CCN1C(=O)[C@H]2[C@@H](c3ccc(-c4cc(C(C)=O)cs4)cc3)N3CCC[C@@]3(C(=O)OC)[C@H]2C1=O,"inconclusive: 5.86 µM [inhibitor, partial curve]"
10,CC(=O)c1ccc(NC(=O)CCC(=O)OCC(=O)c2cccc([N+](=O)[O-])c2)cc1,"inconclusive: 18.5 µM [inhibitor, single point]"
11,CC(C)CN1CCC(=O)N(CCO)CC1,inactive
12,CN(C(=O)COC(=O)c1nc(Cl)ccc1Cl)c1ccccc1,"inconclusive: 20.8 µM [inhibitor, partial curve, poor fit]"
13,CC(C)[C@H](NC(=O)OCc1ccccc1)C(=O)OCC(=O)N1CCN(c2ccccc2)CC1,"inconclusive: 18.5 µM [inhibitor, single point]"
14,COC(=O)C1(S(=O)(=O)c2cc(Br)cc3c2N(C(C)=O)CC3)CC1,inactive
15,CCOc1cccc(C(=O)Nc2ccc(N3CCN(S(C)(=O)=O)CC3)cc2)c1,"inconclusive: 13.1 µM [inhibitor, single point]"
16,CCc1ccccc1Nc1nc(N)nc(CSCC(=O)Nc2ccc(C)c(C)c2)n1,"inconclusive: 16.5 µM [inhibitor, single point]"
17,CCOC(=O)[C@H]1[C@H]2COc3ccc(C)cc3[C@@H]2N2C(=O)[C@@H](C)NC(=O)[C@@]12C,"inconclusive: 5.86 µM [inhibitor, single point]"
18,Cc1sc2nc(CSC(C)C(=O)Nc3cc(S(C)(=O)=O)ccc3Cl)[nH]c(=O)c2c1C (stereo not given),"inconclusive: 10.4 µM [inhibitor, single point]"
19,CC(C)c1ccc(S(=O)(=O)Nc2ccc(-n3cnnn3)cc2)cc1,"inconclusive: 7.38 µM [inhibitor, partial curve]"
20,Cc1c(CCC(C)C)c(-n2ccnc2C)n2c(nc3ccccc32)c1C#N,"inconclusive: 0.0041 µM [inhibitor, full curve, poor fit]"
21,O=C(NCCCn1ccnc1)/C(=C/c1ccco1)NC(=O)c1cccs1,inactive
22,CC(C)Oc1cccc(C(=O)C2CCCN(Cc3ccon3)C2)c1 (stereo not given),"inconclusive: 18.5 µM [inhibitor, single point]"
23,O=c1c2ccc(Cl)cc2[nH]c(=S)n1CCCN1CCOCC1,"inconclusive: 4.15 µM [inhibitor, single point]"
24,COc1ccc(/C=N/NC(=O)c2ccccc2O)cc1Cn1nnc2ccccc21,inactive

row,Structure (SMILES),Potency
1,N#CC(C#N)=Cc1cc(O)c(O)c(O)c1,active: 10.7 µM
2,COc1ccc(-c2oc3ccc(-c4cc(OC)c(OC)c(OC)c4)cc3c2C(=O)c2ccc(OC)nc2)cc1,"inconclusive: 10.4 µM [inhibitor, single point]"
3,COc1ccccc1C1CC(c2ccc(Br)cc2)=NN1C(=O)c1cccnc1 (stereo not given),active: 1.85 µM
4,O=C(Cn1cc([N+](=O)[O-])cn1)N1CCc2ccccc2C1,"inconclusive: 11.7 µM [inhibitor, single point]"
5,Clc1ccc2nncn2n1,"inconclusive: 2.62 µM [inhibitor, full curve, poor fit]"
6,COc1cccc(Cn2cccc(NC(=O)Nc3ccc(C#N)cc3)c2=O)c1,"inconclusive: 0.0657 µM [inhibitor, full curve, poor fit]"
7,O=C(C1=C[C@H](c2ccc3c(c2)OCO3)C[C@H](OCCCCO)O1)N1CCN(Cc2ccccc2)CC1,active: 13.1 µM
8,O=C(COc1ccc(S(=O)(=O)N2CCOCC2)cc1)Nc1ccccc1Cl,inactive
9,C(=N\N1CCN(c2ccccn2)CC1)/c1ccco1,"inconclusive: 18.5 µM [inhibitor, single point]"
10,O=C(COC(=O)/C=C/c1nc2ccccc2s1)Nc1cccc(Cl)c1Cl,inactive
11,CCOC(=O)N1CCN(C(=O)CN(C2CCCCC2)S(=O)(=O)c2ccc(C)cc2)CC1,inactive
12,COc1ccc([C@H]2[C@H](C(=O)C(C)(C)C)N3N=Cc4ccccc4C3[C@]23N=C(c2ccccc2)OC3=O)cc1 (stereo not given in full),active: 9.28 µM
13,Cc1ccc2cc3cc(C(=O)NCc4ccc5c(c4)OCO5)oc3nc2c1,active: 3.7 µM
14,N#Cc1ccc(COC(=O)CCc2c[nH]c3ccccc23)cc1,inactive
15,CN(C(=O)c1ccc(NC(=O)Cc2ccc(NC(=O)C3CCCN(C(=O)CCc4ccccc4)C3)cc2)cc1)C1CC1 (stereo not given),"inconclusive: 11.7 µM [inhibitor, single point]"
16,Cc1oc(-c2cc(F)ccc2F)nc1CN1CCN(c2ncnc3ccccc23)CC1,inactive
17,COc1ccccc1C(=O)Nn1c(C)nc2ccccc2c1=O,inactive
18,COc1ccc(Nc2nc(OC)nc(N3CCN(c4ccc(OC)cc4)CC3)n2)cc1,"inconclusive: 18.5 µM [inhibitor, single point]"
19,O=C(CSc1nc(Nc2ccccc2)nc(N2CCOCC2)n1)N1CCCC1,"inconclusive: 10.4 µM [inhibitor, single point]"
20,CCOc1ccc(NC(=O)c2nnn(CC(=O)Nc3ccccc3OC)c2N)cc1,"inconclusive: 0.262 µM [inhibitor, partial curve, poor fit]"
21,c1ccc(SCc2nc(-c3ccncc3)n[nH]2)nc1,inactive
22,O=C(CNC(=O)c1ccccc1F)c1ccc(Br)cc1,inactive

# Reference: PubChem BioAssay AID504834 (National Center for Advancing Translational Sciences (NCATS), 2011)
